# Results: PubChem BioAssay AID1671190 (National Center for Advancing Translational Sciences (NCATS), 2021)
# Protein sequences, listed by entry. Tags and fused reporters are not part of them. Lines headed by an entry give the natural chain unless they say otherwise; changes in a name come on top.
# UniProt P18054: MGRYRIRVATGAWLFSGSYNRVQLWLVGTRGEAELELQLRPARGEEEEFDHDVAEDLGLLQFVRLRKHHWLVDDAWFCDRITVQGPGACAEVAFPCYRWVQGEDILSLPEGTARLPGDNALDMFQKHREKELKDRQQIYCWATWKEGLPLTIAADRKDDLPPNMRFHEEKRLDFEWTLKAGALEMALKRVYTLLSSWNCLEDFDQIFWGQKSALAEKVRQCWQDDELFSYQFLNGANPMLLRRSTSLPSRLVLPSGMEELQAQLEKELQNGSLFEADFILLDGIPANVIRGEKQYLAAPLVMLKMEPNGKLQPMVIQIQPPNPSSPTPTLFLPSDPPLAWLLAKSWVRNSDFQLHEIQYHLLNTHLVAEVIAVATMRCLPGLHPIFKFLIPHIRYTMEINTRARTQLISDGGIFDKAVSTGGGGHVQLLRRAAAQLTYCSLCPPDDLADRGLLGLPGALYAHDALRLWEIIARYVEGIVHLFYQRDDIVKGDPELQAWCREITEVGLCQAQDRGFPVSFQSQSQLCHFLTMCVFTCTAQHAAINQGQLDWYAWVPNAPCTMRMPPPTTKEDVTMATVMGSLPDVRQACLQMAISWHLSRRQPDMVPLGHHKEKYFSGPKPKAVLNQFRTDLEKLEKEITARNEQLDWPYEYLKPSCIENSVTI
# The campaign covered roughly 580,000 compounds. About 6,100 (1.1%) were called active. Inconclusive means that the source gave no clear call. Such entries were picked first, then a sample of the others. Calls follow the shape of the dose curve; as a rule, active = well fitted inhibition curve with a large enough effect; inconclusive = small, poorly fitted or top-dose-only effect, or another doubt; inactive = no such curve, though single readings can be large or run the other way. A potency beside an inconclusive call is a rough fit, not a confirmed value.
# Target: Polyunsaturated fatty acid lipoxygenase ALOX12 (Homo sapiens) (UniProt P18054)
# Assay: Primary qHTS assay for inhibitors of human arachidonate 12S-lipoxygenase (ALOX12): Round 2
# Conditions: purified 12hLO, xylenol orange hydroperoxide absorbance; activity change, negative = inhibition: at 108 µM (top of the series) unless noted
# Outline: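 Purified human 12hLO (150 nM final) in 25 mM Hepes, 0.01% Triton X-100, pH 7.0 was preincubated 15 min at room temperature with compound. Then 40 uM arachidonic acid was added, 30 min. Hydroperoxide was read by Fe-XO absorbance ratio 573/405 nm.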
# % is scaled to controls: 0 for no effect and ±100 for the full control effect; potency is read from the fitted curve at half-maximal effect.
SMILES,"activity change, negative = inhibition",Potency
CC(C)NC(=O)N1CCC2(CC1)CC(N(Cc1ccc(F)cc1)C1CC1)CCO2 (configuration not stated),inactive: 15.6%,–
COc1ccc(-c2cc3ccc(OCc4nn[nH]n4)cc3oc2=O)cc1OC,–,"inconclusive: 56.2 µM [inhibitor, partial curve, poor fit]"
O=C(CS(=O)(=O)c1cccc2nsnc12)N1CCN(c2ccc(F)cc2)CC1,–,"inconclusive: 4.47 µM [inhibitor, single point]"
COc1cc(NC(=O)COCc2cc(-c3ccc4c(c3)OCO4)on2)c(OC)cc1Cl,–,"inconclusive: 89.1 µM [inhibitor, partial curve, poor fit]"
Cc1noc(C)c1C(=O)N1Cc2ccccc2CC2(CCCN(CC3CCNC3)C2)C1 (configuration not stated),–,"inconclusive: 3.98 µM [inhibitor, full curve]"
COc1ccc(S(=O)(=O)n2c(N)nc3ccccc32)cc1,–,"inconclusive: 35.5 µM [inhibitor, single point]"
CCCCN(CC)CCCNC(=O)c1ccc2c(c1)N(Cc1ccc(C)cc1)C(=O)c1ccccc1S2,–,"inconclusive: 28.2 µM [inhibitor, full curve, poor fit]"
CCC(=O)Nc1ccc2nc3c(=O)[nH]c(=S)[nH]c3nc2c1,–,"inconclusive: 44.7 µM [inhibitor, partial curve, poor fit]"
O=C(O)CN1C(=O)/C(=C\c2cc([N+](=O)[O-])ccc2OCc2ccccc2Cl)SC1=S,–,active: 14.1 µM
C=CCNC(=O)NCc1cccc(C(N)=O)c1,inactive: 29.1%,–
N#C/C(=C\C=C\c1ccco1)C(=O)NC1CCCCCC1,–,active: 12.6 µM
O=C(Nc1nc(-c2ccncc2)cs1)C1COc2ccccc2O1 (configuration not stated),–,active: 14.1 µM
COc1ccc(CN(C)CC(=O)N2c3ccccc3NC(=O)CC2C)cc1F (configuration not stated),–,"inconclusive: 39.8 µM [inhibitor, partial curve, poor fit]"
CC1=C[C@@H](CNC(=O)CCC(=O)O)[C@H](C(C)C)C[C@H]1CC(=O)NCc1ccccn1,–,"inconclusive: 11.2 µM [inhibitor, full curve]"
Cn1cnc(S(=O)(=O)N2CCC(C(=O)N3CCCCCCNC(=O)CC3)CC2)c1,inactive: 27.9%,–
COc1ccc(NC(=O)c2sc(-c3ccco3)nc2-c2ccccc2)cc1OC,–,"inconclusive: 3.16 µM [inhibitor, full curve, poor fit]"
Fc1ccc(-c2nnn(Cc3cc(Cl)c4c(c3)OCCCO4)n2)cc1,inactive: -48.2%,–
Cc1nnc(SCc2nc3sc(C(=O)O)c(C)c3c(=O)[nH]2)s1,inactive: 0%,–
Cc1ccc(/C=C/C(=O)OCC(=O)c2ccc3c(c2)NC(=O)CO3)o1,inactive: -13.5%,–
COc1ccc(CN2CCC(C(O)(c3ccccc3)c3ccccc3)CC2)c(OC)c1,–,"inconclusive: 2.51 µM [inhibitor, full curve]"
COc1ccc2cc3c(N)c(C(=O)N4CCCC4)sc3nc2c1,–,"inconclusive: 50.1 µM [inhibitor, partial curve, poor fit]"

# Three entries from above, arranged by count of non-hydrogen atoms, ascending:
SMILES,"activity change, negative = inhibition",Potency
Fc1ccc(-c2nnn(Cc3cc(Cl)c4c(c3)OCCCO4)n2)cc1,inactive: -48.2%,–
O=C(O)CN1C(=O)/C(=C\c2cc([N+](=O)[O-])ccc2OCc2ccccc2Cl)SC1=S,–,active: 14.1 µM
Cc1noc(C)c1C(=O)N1Cc2ccccc2CC2(CCCN(CC3CCNC3)C2)C1 (configuration not stated),–,"inconclusive: 3.98 µM [inhibitor, full curve]"

# Later entries

SMILES,"activity change, negative = inhibition",Potency
C#CCN(C)CCCOc1ccc(Cl)cc1Cl,–,"inconclusive: 39.8 µM [inhibitor, partial curve, poor fit]"
CCCN1C(=O)C(=O)N(Cc2cc(=O)oc3cc(C)c(C)cc23)C1=O,inactive: -23.9%,–
C=CCn1c(-c2ccc(Cl)cc2)c[nH]c1=S,–,"inconclusive: 44.7 µM [inhibitor, partial curve, poor fit]"
CC(C)(C)S(=O)(=O)/C(C#N)=N/Nc1ccc(Cl)cc1,–,"inconclusive: 5.01 µM [inhibitor, full curve, poor fit]"
O=C1C=C(Nc2ccc(Cl)cc2)CC(c2ccc(Cl)cc2)C1 (configuration not stated),–,"inconclusive: 50.1 µM [inhibitor, partial curve, poor fit]"
Cn1c(=O)c2c(nc(Sc3ncccn3)n2Cc2ccc(Cl)cc2)n(C)c1=O,–,inactive
NNC1CCCC1O (configuration not stated),–,"inconclusive: 3.98 µM [inhibitor, full curve]"
Cc1cccc(C(=O)NCC(=O)OCC(=O)c2ccc(Br)s2)c1,–,"inconclusive: 79.4 µM [inhibitor, partial curve, poor fit]"
O=C1CCC[C@@H]2Cc3nc4cc5c(cc4cc3[C@@H]3CCN1[C@H]23)OCO5,–,"inconclusive: 35.5 µM [inhibitor, partial curve, poor fit]"
O=C(CC12CC3CC(CC(C3)C1)C2)NCC(=O)N1CCc2ccccc2C1,–,"inconclusive: 158 µM [inhibitor, partial curve, poor fit]"
Cc1cc(CN(C)C(=O)CC(c2ccccc2)c2ccccc2C)n[nH]1 (configuration not stated),inactive: 16%,–
O=C(Cc1c[nH]c2ncc(-c3cccc(CO)c3)cc12)N1CCOCC1,–,"inconclusive: 126 µM [inhibitor, partial curve, poor fit]"
COc1cccc(S(=O)(=O)N2C[C@@H](C(N)=O)[C@H](C3CCN(C)CC3)C2)c1,–,"inconclusive: 35.5 µM [inhibitor, partial curve]"
CN(C)c1ccc(S(=O)(=O)N2CCCCC2)cc1NCC(=O)Nc1ccc(N2CCCC2)cc1,–,"inconclusive: 50.1 µM [inhibitor, partial curve, poor fit]"
COc1ccc(NC(=O)Nc2ccc(O)c3ccccc23)cc1,–,"inconclusive: 50.1 µM [inhibitor, partial curve, poor fit]"
COc1ccc(S(=O)(=O)Nc2cc(OC(F)F)c(OC)cc2C(=O)O)cc1Br,–,"inconclusive: 39.8 µM [inhibitor, partial curve, poor fit]"
CCOC(=O)C12CCC(C(=O)O)(CC1)CC2,–,"inconclusive: 28.2 µM [inhibitor, single point]"
CC(C)(CO)Cc1cc(C(C)(C)C)c(O)c(C(C)(C)C)c1,–,"inconclusive: 89.1 µM [inhibitor, single point]"
COc1cc(/C=N/n2cnnc2)ccc1OC(=O)c1cccnc1,inactive: 0%,–
O=C(NC1CCCCC1)c1cccc(NC(=O)c2ccccc2Cl)c1,–,"inconclusive: 39.8 µM [inhibitor, partial curve]"
O=C(c1ccc2ncccc2c1)N1CCC(N2CC3CC(C2)[C@H]2CCCC(=O)N2C3)CC1 (some centres not stated),inactive: 28.2%,–
